# Source: article PMC3491871 (The Journal of biological chemistry, 2004)
# The chains behind the UniProt entries cited, without tags or fusion partners. Where a name states a change or a piece, a line headed by the entry shows the natural chain unless it says otherwise.
# UniProt P28593: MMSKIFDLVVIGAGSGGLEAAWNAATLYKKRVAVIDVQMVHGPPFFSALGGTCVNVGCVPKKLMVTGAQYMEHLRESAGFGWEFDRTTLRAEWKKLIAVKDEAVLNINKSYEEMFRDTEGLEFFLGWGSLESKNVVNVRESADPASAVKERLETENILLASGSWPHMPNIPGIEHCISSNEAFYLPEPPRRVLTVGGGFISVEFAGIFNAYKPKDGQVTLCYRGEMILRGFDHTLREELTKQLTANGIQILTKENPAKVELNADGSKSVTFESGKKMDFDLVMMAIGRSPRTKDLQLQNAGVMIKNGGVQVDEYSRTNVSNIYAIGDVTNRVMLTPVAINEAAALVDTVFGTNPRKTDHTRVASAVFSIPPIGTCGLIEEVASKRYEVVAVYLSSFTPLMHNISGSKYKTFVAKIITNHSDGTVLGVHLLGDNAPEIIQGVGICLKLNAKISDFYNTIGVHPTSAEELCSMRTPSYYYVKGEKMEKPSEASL
# Molecular target: trypanothione reductase (Trypanosoma cruzi, UniProt P28593)
# Assay: biochemical
smiles,measurement,value
CN(C)CCCN1c2ccccc2CCc2ccc(Cl)cc21 [clomipramine],Ki,3.5 ± 0.2 µM
